Data as given in PubChem BioAssay AID743456 (Peter MacCallum Cancer Centre, 2014).
Assay: 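miRNA mimics altering how resistant colon cancer cells respond to vorinostat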 (primary screen). System: human HCT116-VR colon cancer cells, a vorinostat-resistant HCT116 line. Reagent: miRNA mimic. Timing: about 3 days from transfection to readout; drug present for the last 24 h. Conditions: vorinostat at 2.5 µM final for 24 h. Detection: 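Per-well live-cell protease fluorescence and caspase luminescence under 2.5 µM vorinostat for 24 h, scored as robust z-scores and against mock transfection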. Reading the numbers: viability robust z-score and viability vs mock transfection: higher = more viable cells; caspase robust z-score: higher = more caspase activity, more apoptosis. Active means: 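Active when viability drops or caspase activity climbs beyond robust z thresholds, with wells of poor cell health excluded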.
In all, the deposit lists 878 reagents; this is a part drawn at random. 27 of all reagents (3.1%) were called active. 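27 mimics are marked active, unlike an earlier stated count of 24; the viability threshold is described inconsistently.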 Reagent sequences are not shown. Not given: the amount of reagent.

no.	miRNA	viability robust z-score	caspase robust z-score	viability hit class	caspase hit class	viability vs mock transfection	Outcome
1	hsa-miR-337-3p	0.45	-0.45	no change	no change	0.86	inactive
2	hsa-miR-632	-0.95	0.78	no change	no change	0.58	inactive
3	hsa-miR-1259	0.74	-0.06	no change	no change	0.88	inactive
4	hsa-miR-631	-3.24	2	reduced viability	no change	0.17	active
5	hsa-miR-545*	1.14	-0.61	no change	no change	0.96	inactive
6	hsa-miR-1249	-0.55	-0.52	no change	no change	0.72	inactive
7	hsa-miR-147	-1	-0.28	no change	no change	0.65	inactive
8	hsa-miR-205*	-1.09	-0.35	no change	no change	0.55	inactive
9	hsa-miR-548b-5p	-0.04	0.24	no change	no change	0.78	inactive
10	hsa-miR-933	0.69	1.17	no change	no change	0.9	inactive
11	hsa-miR-1227	-1.34	5.32	no change	caspase activation	0.51	active
12	hsa-miR-302a	0.77	1.38	no change	no change	0.92	inactive
13	hsa-miR-575	-0.2	1.56	no change	no change	0.76	inactive
14	hsa-miR-1267	0.74	-0.52	no change	no change	0.88	inactive
15	hsa-miR-362-5p	-0.34	0.24	no change	no change	0.68	inactive
16	hsa-miR-220a	-0.14	0.34	no change	no change	0.76	inactive
17	hsa-miR-1468	0.34	-0.82	no change	no change	0.84	inactive
18	hsa-miR-939	-0.48	0.18	no change	no change	0.71	inactive
19	hsa-miR-92b*	1.38	-0.12	no change	no change	1.02	inactive
20	hsa-miR-875-3p	0.38	-0.31	no change	no change	0.82	inactive
21	hsa-miR-212	0.01	0.4	no change	no change	0.8	inactive
22	hsa-miR-10b	-0.41	-0.78	no change	no change	0.72	inactive

Hits (from the list above):
miRNA	viability robust z-score	caspase robust z-score	viability hit class	caspase hit class	viability vs mock transfection	Outcome
hsa-miR-631	-3.24	2	reduced viability	no change	0.17	active
hsa-miR-1227	-1.34	5.32	no change	caspase activation	0.51	active

Next reagents:
no.	miRNA	viability robust z-score	caspase robust z-score	viability hit class	caspase hit class	viability vs mock transfection	Outcome
23	hsa-miR-338-3p	0.81	-0.55	no change	no change	0.92	inactive
24	hsa-miR-186	1.78	0.08	no change	no change	1.06	inactive
25	hsa-miR-214	-0.26	1.19	no change	no change	0.76	inactive
26	hsa-miR-432	-1.17	0.56	no change	no change	0.54	inactive
27	hsa-miR-626	1.45	1.26	no change	no change	1.03	inactive
28	hsa-miR-492	-1.05	-0.9	no change	no change	0.56	inactive
29	hsa-miR-1275	-3.3	2.23	reduced viability	no change	0.24	active
30	hsa-miR-548d-5p	1.16	-0.12	no change	no change	0.98	inactive
31	hsa-miR-522	-1.29	0.86	no change	no change	0.57	inactive
32	hsa-miR-135b*	-1.11	4	no change	no change	0.55	inactive
33	hsa-miR-512-3p	1.44	3.93	no change	no change	1	inactive
34	hsa-miR-342-5p	-3.13	2.64	reduced viability	no change	0.26	active
35	hsa-miR-651	-0.2	-0.34	no change	no change	0.71	inactive
36	hsa-miR-223	0.75	2.87	no change	no change	0.88	inactive
37	hsa-miR-608	-0.96	4.12	no change	no change	0.58	inactive
38	hsa-miR-193b*	-0.59	0.4	no change	no change	0.69	inactive
39	hsa-miR-323-5p	-2.81	-0.4	no change	no change	0.37	inactive
40	hsa-miR-483-3p	-0.01	0.06	no change	no change	0.75	inactive
41	hsa-miR-600	-0.44	0.73	no change	no change	0.72	inactive
42	hsa-miR-520c-3p	0.94	1.5	no change	no change	0.92	inactive
43	hsa-miR-181b	-0.42	1.27	no change	no change	0.74	inactive
44	hsa-miR-298	-1.02	3.84	no change	no change	0.62	inactive
45	hsa-miR-885-3p	-1.16	3.7	no change	no change	0.54	inactive
46	hsa-miR-581	1.12	-0.18	no change	no change	0.96	inactive
47	hsa-miR-183	0.1	-0.98	no change	no change	0.81	inactive
48	hsa-miR-944	-0.08	-0.77	no change	no change	0.74	inactive
49	hsa-miR-106b*	-0.13	0.66	no change	no change	0.77	inactive
50	hsa-miR-1207-3p	-1.89	5.65	no change	caspase activation	0.51	active
51	hsa-miR-1322	0.24	0.34	no change	no change	0.82	inactive
52	hsa-miR-517c	-0.43	1.21	no change	no change	0.72	inactive
53	hsa-miR-523	0.7	0.4	no change	no change	0.88	inactive
54	hsa-miR-591	-0.62	-0.23	no change	no change	0.64	inactive
55	hsa-miR-671-3p	-3.45	-0.82	reduced viability	no change	0.22	active
56	hsa-miR-369-3p	0.72	-0.79	no change	no change	0.91	inactive
57	hsa-miR-95	-0.22	-0.14	no change	no change	0.77	inactive
58	hsa-miR-497*	0.24	-0.55	no change	no change	0.79	inactive
59	hsa-miR-320c	0.74	1.12	no change	no change	0.91	inactive
60	hsa-miR-27a	-1.2	-0.03	no change	no change	0.6	inactive
61	hsa-miR-324-3p	0.82	0.05	no change	no change	0.9	inactive
62	hsa-miR-99a*	-0.12	-0.56	no change	no change	0.76	inactive
63	hsa-miR-28-3p	-0.86	1.31	no change	no change	0.67	inactive
